Test results published in PMC11024185.

What was measured:
[1] = target: T1, Dbp10 (2xStrep-bdNEDD8-DBP10) (S. cerevisiae) (UniProt Q12389); assay: affinity purification with mass spectrometry; split-tag purification of pre-60S particles from SPB4-AID yeast without and with auxin (0.5 mM IAA, 45 min): IgG Sepharose on Noc2-2xProteinA, 3C cleavage, then Strep-Tactin on 2xStrep-Dbp10; buffers with 50 µM ADP-BeF3; Coomassie-stained 4-20% SDS-PAGE, bands named by molecular weight, ambiguous bands by mass spectrometry; auxin gave ~10-fold enrichment of the particle
T1 sequence: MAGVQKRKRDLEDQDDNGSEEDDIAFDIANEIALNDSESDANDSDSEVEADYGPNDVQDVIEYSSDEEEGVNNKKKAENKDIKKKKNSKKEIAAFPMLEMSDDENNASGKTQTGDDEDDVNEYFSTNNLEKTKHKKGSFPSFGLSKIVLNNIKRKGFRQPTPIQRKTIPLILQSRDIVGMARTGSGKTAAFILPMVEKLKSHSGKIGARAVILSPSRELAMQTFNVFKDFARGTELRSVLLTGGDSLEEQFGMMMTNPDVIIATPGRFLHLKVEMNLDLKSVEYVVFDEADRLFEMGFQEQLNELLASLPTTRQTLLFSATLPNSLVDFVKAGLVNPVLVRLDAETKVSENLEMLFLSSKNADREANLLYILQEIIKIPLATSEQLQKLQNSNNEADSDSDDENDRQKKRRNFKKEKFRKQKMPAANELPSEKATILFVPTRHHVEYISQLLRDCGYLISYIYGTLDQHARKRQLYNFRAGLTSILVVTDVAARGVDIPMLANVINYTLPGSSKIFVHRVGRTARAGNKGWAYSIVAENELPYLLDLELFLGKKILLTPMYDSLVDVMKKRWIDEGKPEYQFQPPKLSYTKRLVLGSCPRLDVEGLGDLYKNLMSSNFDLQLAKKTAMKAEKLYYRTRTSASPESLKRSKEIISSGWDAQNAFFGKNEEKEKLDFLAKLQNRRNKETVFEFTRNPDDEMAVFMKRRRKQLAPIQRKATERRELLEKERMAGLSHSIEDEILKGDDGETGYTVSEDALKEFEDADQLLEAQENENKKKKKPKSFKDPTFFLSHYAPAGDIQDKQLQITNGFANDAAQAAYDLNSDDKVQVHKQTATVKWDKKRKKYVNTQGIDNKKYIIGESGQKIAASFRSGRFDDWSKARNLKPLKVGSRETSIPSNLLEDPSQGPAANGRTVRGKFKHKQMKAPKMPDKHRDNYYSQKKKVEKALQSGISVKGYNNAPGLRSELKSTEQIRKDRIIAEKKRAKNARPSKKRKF

[2] = target: T2, Dbp10 (wild type, overexpressed, N-terminal 3xStrep-sfGFP-bdNEDD-MYC tag) (S. cerevisiae) (UniProt Q12389); assay: affinity purification with mass spectrometry; split tags on Brx1 and Dbp10 from yeast lysate after β-estradiol-induced overexpression of DBP10 or dbp10^R522V: IgG Sepharose (Brx1-2xProteinA), 3C protease cleavage, Strep-Tactin (Dbp10), elution with bdNEDD8 protease; Ribo-buffer (50 mM Bis-Tris-Propane HCl pH 8.0, 125 mM NaCl, 25 mM KCl, 10 mM MgCl2, 1 mM TCEP, NP-40); semi-quantitative mass spectrometry of pre-60S particles
T2 sequence: T1 sequence

[3] = target: T3, Dbp10^R522V (slow-hydrolysis mutant, overexpressed, N-terminal 3xStrep-sfGFP-bdNEDD-MYC tag) (S. cerevisiae) (UniProt Q12389); assay: as above
T3 sequence: T1 sequence with R522V

[4] = target: T4, Drs1 R569Q (3x-Strep-Drs1 R569Q) (S. cerevisiae) (UniProt P32892); assay: affinity purification with mass spectrometry; purification of pre-60S intermediates from a drs1 R569Q strain by tags on Drs1 R569Q (3x-Strep) and Ssf1 (2x-ProtA); Coomassie-stained 4-20% SDS-PAGE
T4 sequence: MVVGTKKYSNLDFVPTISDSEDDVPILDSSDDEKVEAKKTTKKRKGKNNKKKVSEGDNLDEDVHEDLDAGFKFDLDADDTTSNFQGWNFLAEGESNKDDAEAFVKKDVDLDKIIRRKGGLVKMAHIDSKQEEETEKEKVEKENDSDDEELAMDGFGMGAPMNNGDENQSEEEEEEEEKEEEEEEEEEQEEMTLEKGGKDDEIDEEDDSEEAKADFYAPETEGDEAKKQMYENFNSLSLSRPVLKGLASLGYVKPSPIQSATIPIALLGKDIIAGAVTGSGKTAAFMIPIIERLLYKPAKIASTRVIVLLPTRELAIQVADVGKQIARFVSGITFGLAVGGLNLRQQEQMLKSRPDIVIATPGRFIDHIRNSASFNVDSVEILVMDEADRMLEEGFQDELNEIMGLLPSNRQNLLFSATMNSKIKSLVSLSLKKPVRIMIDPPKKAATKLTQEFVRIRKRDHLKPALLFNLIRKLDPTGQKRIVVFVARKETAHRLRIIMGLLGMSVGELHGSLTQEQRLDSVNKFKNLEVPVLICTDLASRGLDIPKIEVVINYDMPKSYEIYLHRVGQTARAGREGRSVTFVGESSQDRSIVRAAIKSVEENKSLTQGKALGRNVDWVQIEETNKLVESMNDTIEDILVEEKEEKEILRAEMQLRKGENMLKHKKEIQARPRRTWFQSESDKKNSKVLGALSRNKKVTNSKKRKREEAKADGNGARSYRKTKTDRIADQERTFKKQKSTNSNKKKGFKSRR

[5] = target: T1, Dbp10 (2xStrep-bdNEDD8-DBP10) (S. cerevisiae); assay: affinity purification with mass spectrometry; split-tag purification of pre-60S particles from steady state DBP10 yeast: IgG Sepharose on Ssf1-2xProteinA, 3C cleavage, then Strep-Tactin on 2xStrep-Dbp10, desthiobiotin elution; buffers with 50 µM ADP-BeF3; Coomassie-stained 4-20% SDS-PAGE, bands named by molecular weight, ambiguous bands by mass spectrometry
[6] = target: T5, Dbp10 R522V (sfGFP-3xSTREP-bdNEDD8-MYC-dbp10 R522V) (S. cerevisiae) (UniProt Q12389); assay: affinity purification with mass spectrometry; split-tag purification of pre-60S particles from yeast overexpressing dbp10 R522V (β-estradiol, 1 h): IgG Sepharose on Ssf1-2xProteinA, 3C cleavage, then Strep-Tactin on Dbp10 R522V, bdNEDD8 protease elution; 50 mM Bis-Tris-Propane pH 8.0, 125 mM NaCl, 25 mM KCl, 10 mM MgCl2; Coomassie-stained 4-20% SDS-PAGE, bands named by molecular weight, ambiguous bands by mass spectrometry
T5 sequence: T1 sequence with R522V

Measured: binding

B1: Noc3 (protein, UniProt Q07896 1-663)
chain: MAKRNRSQFRIQERTAKKRKHEDSLLEGNVFQNAPEDMDENTIYSAKGSSWDEEEQDYEMVPRKNRSDTSNLVEGLPIKVNGKVERKLHKAQEKPKDDDEEDEDSNDSSEDDEGPNEEQEAEAKEDEPDTEEKILQLKEDIADLVTKVMEEPEENTAALGRLCKMVESKNPNTCKFSMLALVPVFKSIIPGYRIRPLTETEKKEKVSKEVSKLRNFEQALVYNYKNYVGRLQSLSKTPSNAAPIQVSLGILATQAAKELISTASHFNFRTDIFTLLLRRICKPRISTDPTSIQIIQTFETLLNEDEEGSISFEILRIFNKILKTRNFNIEESVLNMLLSLDVLHDYDPNTKLKGNVSAPKLKKKDRVHLSKKQRKARKEMQQIEEEMRNAEQAVSAEERERNQSEILKIVFTIYLNILKNNAKTLIGSVLEGLTKFGNMANFDLLGDFLEVMKELISDTEFDNLSSAEVRKALLCIVSAFSLISNTQYMKVNVDLSKFVDGLYALLPYICLDADIELSYRSLRLADPLNNEIIKPSVNVSTKAELLLKALDHVFFRSKSGTKERATAFTKRLYMCISHTPEKTSIAILKFIDKLMNRYPEISGLYSSEDRIGNGHFIMEADNPSRSNPEAATLWDNALLEKHYCPVVTKGLRSLSSRSKECSK
binds: [1] | [2] | [3]

B2: Rrp14 (protein, UniProt P36080 1-434)
chain: MSNSLEERLRANSSAFDGLLALIPAKYYYDEKSQEQWKAKKKTKEQSKNDKLKKLDPEQRDDETSSTLEVMKKKEKDAKPVVLPGEKFKHMKMQKQKEATSKVEGDSDLNVEVNDPMIIAPDEDEEEEEDIKVIFDDEGNEIPLESKKDTTEPDRSVEKKSITEEEKLQRKKNLEALRSKLQAKISDMKSKRKAPGSREAILAQRKRKEELKKRKRLESEQEQDQDEIASDSDMEDIDSDLENNSKKRFKKGKKDSEINADGVMFQNIIFDDGARATSDLQRLRKAGRTKGPAKNDVKSHLKLLEAKKNKMEAKDELEQIKQKEKEKWQKAMLQAEGIKIRDDEKLLRKAIKRKEAQKRKSAIEWSERKRVVEDTISERQKRREENLRIRKDNKGKKRNKQEKMKRKYVGSAVPKKRAGFEGRLKTGKKKGGPK
not listed: [1]
binds: all other assays above

Changes are numbered by the printed parent chain. No constants are given. Whether binding was seen depends on the method and setting. Binding seen in cells or lysates may run through a third protein. A yes stands for co-enrichment or nearness to the bait. Other partners may have been found. For some assays here: Where a sequence is shown, tags or fusion partners need not be part of it.
